{"source": "patent US20090162369A1", "about": "“SYNTHETIC CHIMERIC PEPTIDES” (priority 2007, published 2009)", "data": [{"assay": "Conjugation efficiency of the TN peptides (affinity purification of peptide specific antibodies)", "settings": "affinity column displaying multiple copies of the peptides", "units": {"Conjugation efficiency of the TN peptides for the purified antibodies": "%"}, "values": [{"sequence": "LRRDLDAEDEAKKQVEKALEC [TN peptide 3]", "Conjugation efficiency of the TN peptides for the purified antibodies": 76.7}, {"sequence": "LRRDLDAENEAKKQVEKALEC [TN peptide 2]", "Conjugation efficiency of the TN peptides for the purified antibodies": 100}, {"sequence": "LRRDLDAEREAKKQVEMALEC [TN peptide 6]", "Conjugation efficiency of the TN peptides for the purified antibodies": 100}, {"sequence": "LRRDLDAEREAKKQVERALEC [TN peptide 5]", "Conjugation efficiency of the TN peptides for the purified antibodies": 92}, {"sequence": "LRRDLDAEREAKNQVEKALEC [TN peptide 4]", "Conjugation efficiency of the TN peptides for the purified antibodies": 96}, {"sequence": "LRRDLDASDEAKKQVERALEC [TN peptide 16]", "Conjugation efficiency of the TN peptides for the purified antibodies": 100}, {"sequence": "LRRDLDASNEAKKQVEMALEC [TN peptide 14]", "Conjugation efficiency of the TN peptides for the purified antibodies": 100}, {"sequence": "LRRDLDASNEAKKQVERALEC [TN peptide 13]", "Conjugation efficiency of the TN peptides for the purified antibodies": 100}, {"sequence": "LRRDLDASNEAKNQVEKALEC [TN peptide 12]", "Conjugation efficiency of the TN peptides for the purified antibodies": 100}, {"sequence": "LRRDLDASREAKNQVEMALEC [TN peptide 19]", "Conjugation efficiency of the TN peptides for the purified antibodies": 55}, {"sequence": "LRRDLDASREAKNQVERALEC [TN peptide 18]", "Conjugation efficiency of the TN peptides for the purified antibodies": 100}, {"sequence": "LRRDLDAVDEAKKQVEKALEC [TN peptide 8]", "Conjugation efficiency of the TN peptides for the purified antibodies": 100}, {"sequence": "LRRDLDAVNEAKKQVEKALEC [TN peptide 7]", "Conjugation efficiency of the TN peptides for the purified antibodies": 98}, {"sequence": "LRRDLDAVREAKKQVEMALEC [TN peptide 11]", "Conjugation efficiency of the TN peptides for the purified antibodies": 100}, {"sequence": "LRRDLDAVREAKKQVERALEC [TN peptide 10]", "Conjugation efficiency of the TN peptides for the purified antibodies": 98}, {"sequence": "LRRDLDAVREAKNQVEKALEC [TN peptide 9]", "Conjugation efficiency of the TN peptides for the purified antibodies": 99}]}]}
